{
  "source": "patent US12186392B2",
  "about": "“Combination therapy of an anti CD20 antibody with a BTK inhibitor” (Ono Pharmaceutical Co., Ltd., priority 2013, dated 2025)",
  "system": "TMD8 (ABC-DLBCL) cells",
  "assay": "Antitumor activity study of compound A or compound B (in diet) in combination with RTX in TMD8 xenograft model (Example 3)",
  "assay_type": "in vivo, SCID mice",
  "settings": "monotherapy; RTX 3 mg/kg i.v., compound A 0.0037%, compound B 0.012% in diet",
  "description": "Mice were xenografted on DO. […] Mice received one IV injection of Rituximab (at 3 mg/kg) once a week (D14 (Day 0), 21 (Day 7) and 28 (Day 14): Q7D×3). Tumor volumes were monitored and recorded at Day 3, Day 7, Day 11, Day 14, Day 18 and Day 21.\nFemale C.B-17/lcr-SCID/SCIDJcl mice (Clea Japan Inc., age at initiation of experiment: 6 weeks; hereinafter referred to as “Scid mice”) were used. The mice were kept in metal mouse cages, 3 to 5 to a cage, and underwent about 1 week acclimation period prior to being subjected to the experiment. While at our facility, the animals were allowed solid feed, CRF-1 (Oriental Yeast Co., Ltd.) and tap water (from an automatic dispenser) ad libitum. Excrement was processed with an automated cleaning system. The general condition of the animals was observed upon receipt and at the completion of acclimation. […]\nThe long axis and short axis of the tumors were measured with electronic calipers (Mitutoyo Corporation) every 2 or 4 days from TMD8 implantation to the final assessment day.\nThe primary endpoint was tumor volume on the final assessment day. In addition, the tumor growth inhibition rate (TGI, %) in the treatment groups versus the vehicle group was calculated. […] Tumor volume was calculated with the following formula. […]\nTumor diameter was measured and tumor volume was calculated every 3 or 4 days after group assignment.",
  "note": "Where a name gives a salt, the structure may show the parent alone. Some results were stated once for a whole list of compounds, not compound by compound.",
  "data": [
    {"smiles": "CC#CC(=O)N1CC[C@@H](n2c(=O)n(-c3ccc(Oc4ccccc4)cc3)c3c(N)ncnc32)C1", "note": "[compound A, 6-amino-9-[(3R)-1-(2-butynoyl)-3-pyrrolidinyl]-7-(4-phenoxyphenyl)-7,9-dihydro-8H-purin-8-one hydrochloride]", "values": [
      {"measurement": "Statistical significance observed after Day", "value": "> 7", "unit": "days"}
    ]}
  ]
}
